In article doi:10.1101/506113 (bioRxiv, 2018):
No constants are given. Whether binding was seen depends on the method and setting. Binding seen in cells or lysates may run through a third protein. Some results given as binding are weak or reduced against the parent protein; the word gives no strength.

Chains of the proteins cited; added tags and fusions are not shown. Lines headed by an entry give the natural chain unless they say otherwise; changes in a name come on top.
UniProt O60238: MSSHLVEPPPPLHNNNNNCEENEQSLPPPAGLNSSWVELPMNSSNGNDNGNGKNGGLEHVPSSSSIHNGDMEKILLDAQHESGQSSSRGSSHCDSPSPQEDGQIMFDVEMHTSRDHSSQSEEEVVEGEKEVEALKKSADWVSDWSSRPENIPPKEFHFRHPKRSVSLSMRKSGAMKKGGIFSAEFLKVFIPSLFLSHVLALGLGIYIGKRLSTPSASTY

Experiments:
[1] = molecular target: V5-tagged NIX (V5-NIX), transfected in HeLa.Kyoto cells (UniProt O60238); assay: proximity ligation
[2] = molecular target: V5-tagged NIX (V5-NIX), transfected in HeLa.Kyoto cells (UniProt O60238); assay: co-IP
[3] = molecular target: LgB-NIX (NIX with Large BiT at its N-terminal end) (UniProt O60238); assay: split reporter
[4] = molecular target: NIXΔTA (NIX deficient in the tail anchor region, residues 188 to 208), NanoBiT fusion (UniProt O60238); assay: split reporter

vIRF-1 wild type, transfected in HeLa.Kyoto cells (from UniProt F5HF68 1-449)
binding [1]: binds
binding [2]: binds

vIRF-1 F10A, transfected in HeLa.Kyoto cells (from UniProt F5HF68 1-449)
binding [2]: no binding

SmB-vIRF-1 (vIRF-1 with Small BiT at its N-terminal end) (from UniProt F5HF68 1-449)
binding [3]: binds

vIRF-1-SmB (vIRF-1 with Small BiT at its C-terminal end) (from UniProt F5HF68 1-449)
binding [4]: no binding
